Measurements as given in paper PMC7450600.
No constants are given. Whether binding was seen depends on the method and setting. Binding seen in cells or lysates may run through a third protein. Some binding calls cover weakened binding; strength is not graded here.

The chains behind the UniProt entries cited, without tags or fusion partners. Residues count along the entry.
UniProt P20333, residues 23-461: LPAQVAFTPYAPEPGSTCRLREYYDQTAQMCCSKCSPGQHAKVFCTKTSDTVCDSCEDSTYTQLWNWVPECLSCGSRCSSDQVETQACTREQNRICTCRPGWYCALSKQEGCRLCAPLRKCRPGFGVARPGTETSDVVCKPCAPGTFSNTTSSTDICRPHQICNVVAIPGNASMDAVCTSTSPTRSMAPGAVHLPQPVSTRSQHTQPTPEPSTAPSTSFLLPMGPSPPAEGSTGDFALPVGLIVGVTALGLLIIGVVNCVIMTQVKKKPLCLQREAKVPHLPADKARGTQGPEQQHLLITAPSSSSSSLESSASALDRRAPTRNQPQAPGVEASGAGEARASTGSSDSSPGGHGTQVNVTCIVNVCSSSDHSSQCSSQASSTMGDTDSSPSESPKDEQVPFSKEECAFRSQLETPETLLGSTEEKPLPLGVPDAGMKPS
UniProt Q9P206: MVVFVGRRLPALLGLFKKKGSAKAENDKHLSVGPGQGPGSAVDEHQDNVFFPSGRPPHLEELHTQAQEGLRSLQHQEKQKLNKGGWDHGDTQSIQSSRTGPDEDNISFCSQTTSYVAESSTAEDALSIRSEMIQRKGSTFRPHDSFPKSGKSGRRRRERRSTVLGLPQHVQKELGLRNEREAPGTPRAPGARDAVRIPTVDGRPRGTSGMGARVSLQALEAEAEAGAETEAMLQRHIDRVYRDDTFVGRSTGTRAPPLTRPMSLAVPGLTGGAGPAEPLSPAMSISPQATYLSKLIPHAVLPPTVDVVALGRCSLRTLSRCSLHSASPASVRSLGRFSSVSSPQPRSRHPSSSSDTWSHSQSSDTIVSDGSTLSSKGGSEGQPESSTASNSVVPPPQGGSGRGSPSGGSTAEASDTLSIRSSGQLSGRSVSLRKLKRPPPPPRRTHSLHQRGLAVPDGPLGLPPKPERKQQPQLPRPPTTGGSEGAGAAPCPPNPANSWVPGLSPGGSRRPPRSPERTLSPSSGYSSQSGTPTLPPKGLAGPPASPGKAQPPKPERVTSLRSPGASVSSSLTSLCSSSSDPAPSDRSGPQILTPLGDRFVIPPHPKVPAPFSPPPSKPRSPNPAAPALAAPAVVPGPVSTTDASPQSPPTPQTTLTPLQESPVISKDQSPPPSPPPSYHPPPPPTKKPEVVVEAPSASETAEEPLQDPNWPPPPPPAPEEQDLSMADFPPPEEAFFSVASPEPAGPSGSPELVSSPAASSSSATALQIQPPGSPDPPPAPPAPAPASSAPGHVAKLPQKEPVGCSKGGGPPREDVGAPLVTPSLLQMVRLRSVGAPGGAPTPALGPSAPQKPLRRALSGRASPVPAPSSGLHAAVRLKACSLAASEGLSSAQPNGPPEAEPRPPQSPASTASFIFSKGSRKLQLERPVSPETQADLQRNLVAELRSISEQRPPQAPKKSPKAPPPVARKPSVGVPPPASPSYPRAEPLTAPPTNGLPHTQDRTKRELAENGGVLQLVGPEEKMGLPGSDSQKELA

Molecular target: TNFR2 (UniProt P20333)
Test: co-IP; cells lysed in IP lysis buffer, pre-cleared with Protein G-agarose, primary antibody 3 h at 4 °C, Protein G-agarose overnight, washed three times with TBS, western blot; cells and precipitating antibody for this pair not told

binding: binds
Substance: KIAA1522 (from UniProt Q9P206 1-1035)
